PubChem BioAssay AID2417 (National Center for Advancing Translational Sciences (NCATS), 2010)
The campaign covered roughly 140,000 compounds. About 4,300 (3.1%) were called active. Inconclusive results, whose numbers are uncertain, are shown with a selection of clear calls.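 How the source made its calls: active means readout at or below -70, meaning at least 70% loss of cells showing the perinucleolar compartment, a nuclear body marking cancer cells; inconclusive means readout between -30 and a set limit; inactive means the rest.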

Assay: High Content Assay for Compounds that inhibit the Assembly of the Perinucleolar Compartment;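 further: plate controls were DMSO wells for no effect and camptothecin positive control wells for full effect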
Conditions: PC3M PTB-GFP, PNC prevalence imaging, 16 h; at 10 µM; hits give low values
Method in brief: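 Read-out is percentage of cells bearing a perinucleolar compartment, from automated 20x imaging of fixed, Hoechst-stained PC3M PTB-GFP cells. Cells were seeded 4 h, then exposed 16 h to compound (23 nl of library stock) in duplicate plates.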

Q: With `Cc1ccc(S(=O)(=O)/N=C(\N)Nc2nc(C)c3ccc(C)cc3n2)cc1` as the compound, how does the activity change (PNC), negative = inhibition read?
A: inactive: 2.92%

Q: Which activity change (PNC), negative = inhibition does the source give for `COc1ccc(C)cc1NC(=O)C(Sc1nnc(Nc2ccccc2F)s1)c1ccccc1` (stereo not given) here?
A: inconclusive: -41.8%

Q: With `CCOc1ccccc1C(=O)NC1CC2CCCC(C1)N2Cc1nnnn1Cc1ccco1` (stereo not given) as the compound, how does the activity change (PNC), negative = inhibition read?
A: inactive: -7.49%

Q: With `CS(=O)(=O)N(CC(=O)N1CCN(c2ccccc2F)CC1)C1CCCCC1` as the compound, how does the activity change (PNC), negative = inhibition read?
A: active: -88%

Q: For `C=CCNC(=S)Nc1nc2c(cc1C(=O)OCC)CCCC2`, which activity change (PNC), negative = inhibition is on record?
A: inactive: 53.4%

Q: For `COC(=O)c1ccc(-c2ccco2)n1Cc1nc(-c2ccc(OC)c(OC)c2)oc1C`, which activity change (PNC), negative = inhibition is on record?
A: inconclusive: -76.7%

Q: With `Cc1ccc(-n2nnnc2C(Cl)(Cl)c2nnnn2-c2ccc(C)cc2)cc1` as the compound, how does the activity change (PNC), negative = inhibition read?
A: inactive: 2.38%

Q: For `CCOC(=O)c1c(N)sc2c1CCCC2`, which activity change (PNC), negative = inhibition is on record?
A: inconclusive: -35.7%

Q: For `O=C(c1ccc(C(F)(F)F)cc1)N1CCC(=O)N(C(COCc2ccc(C(F)(F)F)cc2)Cc2ccccc2)CC1` (stereo not given), which activity change (PNC), negative = inhibition is on record?
A: inactive: 25.8%

Q: For `CC(=O)NS(=O)(=O)c1cccnc1Nc1ccc(Cl)c(Cl)c1`, which activity change (PNC), negative = inhibition is on record?
A: inconclusive: -32.5%

Q: Which activity change (PNC), negative = inhibition does the source give for `CCOc1ccccc1Oc1coc2cc(OC)ccc2c1=O` here?
A: inconclusive: -30.2%

Q: For `O=C(Nc1cc(C(F)(F)F)ccc1N1CCOCC1)c1cccs1`, which activity change (PNC), negative = inhibition is on record?
A: inconclusive: -31.6%

Q: With `O=[N+]([O-])c1ccc(O)c(-c2nn[nH]n2)c1` as the compound, how does the activity change (PNC), negative = inhibition read?
A: inconclusive: -38.8%

Q: With `O=C(Nc1ccccc1)c1ccc[nH]1` as the compound, how does the activity change (PNC), negative = inhibition read?
A: inconclusive: -56%

Q: For `COc1ccc(OC)c(S(=O)(=O)NCc2csc(-c3ccccc3)n2)c1`, which activity change (PNC), negative = inhibition is on record?
A: inconclusive: -37%

Q: For `CCOC(=O)c1ccc(S(=O)(=O)N2CCN(CC3CC=CCC3)CC2)cc1` (stereo not given), which activity change (PNC), negative = inhibition is on record?
A: inconclusive: -36.2%

Q: Which activity change (PNC), negative = inhibition does the source give for `COc1ccc(NC(=O)c2cncc(Br)c2)cc1S(=O)(=O)N1CCCCC1` here?
A: inconclusive: -58.4%

Q: For `CCCC(=O)Nc1ccc(C(=O)N2CCCC2)cc1`, which activity change (PNC), negative = inhibition is on record?
A: inconclusive: -37%

Q: For `COc1ccccc1C1C(C#N)=C(N)N(c2cccnc2)C2=C1C(=O)CC(C)(C)C2` (stereo not given), which activity change (PNC), negative = inhibition is on record?
A: inactive: -7.39%

Q: For `Cc1cc2cc(C(c3nnnn3C3CCCC3)N(Cc3cccnc3)Cc3ccco3)c(=O)[nH]c2cc1C` (stereo not given), which activity change (PNC), negative = inhibition is on record?
A: inactive: 11%

Q: For `O=C(N/N=C/c1cccs1)C1CC(=O)N(c2ccccc2)C1` (stereo not given), which activity change (PNC), negative = inhibition is on record?
A: inconclusive: -52.4%

Q: For `Nc1c(-c2ccc(Cl)cc2)cnc2ncnn12`, which activity change (PNC), negative = inhibition is on record?
A: active: -109%

Q: Which activity change (PNC), negative = inhibition does the source give for `CCCCNc1c2c(nc3c(-c4ccccc4)c(C)nn13)CCC2` here?
A: inactive: -8.77%

Q: Which activity change (PNC), negative = inhibition does the source give for `C#CCOCCOCCOCCNc1nc(N2CCN(C(=O)Cn3cc(CCCN=C(N)N)nn3)CC2)nc(N2CCN(C(=O)[C@H]([C@@H](C)CC)n3cc(CCCN=C(N)N)nn3)CC2)n1` here?
A: inactive: 28.6%

Q: For `CC(=O)c1c(C)n(-c2ccc(N(C)C)cc2)c2ccc(OCC(N)=O)cc12`, which activity change (PNC), negative = inhibition is on record?
A: inconclusive: -48.7%

Q: Which activity change (PNC), negative = inhibition does the source give for `COC(=O)CSc1ccc2nnc(-c3ccc(OC)c(OC)c3)n2n1` here?
A: inactive: -17.3%

Q: For `C=CCSc1nc2sc3c(c2c(=O)n1CC)CCc1ccccc1-3`, which activity change (PNC), negative = inhibition is on record?
A: inactive: -4.18%

Q: Which activity change (PNC), negative = inhibition does the source give for `Cc1ccc(SC(CC(=O)c2ccc(C)cc2)C(=O)O)cc1` (stereo not given) here?
A: inconclusive: -36.4%

Q: Which activity change (PNC), negative = inhibition does the source give for `COc1ccc(C(=O)Nc2ccccc2C(=O)NC(Cc2ccc(O)cc2)C(=O)NNC(=O)c2ccc(C)cc2)cc1` (stereo not given) here?
A: inconclusive: -61.8%

Q: Which activity change (PNC), negative = inhibition does the source give for `Cc1cc([N+](=O)[O-])ccc1NCc1cccc([N+](=O)[O-])c1` here?
A: inconclusive: -30%

Q: With `O=C(COC(=O)c1ccccc1Nc1ccccc1)Nc1ccccc1` as the compound, how does the activity change (PNC), negative = inhibition read?
A: inconclusive: -40.9%

Q: With `NC(=O)c1cccnc1Nc1ccccc1Cl` as the compound, how does the activity change (PNC), negative = inhibition read?
A: inactive: 4.55%

Q: With `O=C(COC(=O)COc1ccc(Cl)cc1)NCc1cccs1` as the compound, how does the activity change (PNC), negative = inhibition read?
A: inactive: 4.8%

Q: For `COc1ccc(CCNc2cc(N3CCN(C(=O)c4ccc(C)cc4)CC3)ccc2[N+](=O)[O-])cc1OC`, which activity change (PNC), negative = inhibition is on record?
A: inactive: -20.6%

Q: Which activity change (PNC), negative = inhibition does the source give for `Cc1ccc2cc(COC(=O)C3CCCO3)c(=O)[nH]c2c1` (stereo not given) here?
A: inconclusive: -32.1%

Q: With `Cc1ccc(NC(=O)c2oc3c(c2C)C(=O)CC(C)(C)C3)cc1` as the compound, how does the activity change (PNC), negative = inhibition read?
A: inconclusive: -42.4%

Q: With `O=CNNC(=O)c1cccc([N+](=O)[O-])c1` as the compound, how does the activity change (PNC), negative = inhibition read?
A: inactive: 7.61%

Q: For `N#CCc1ccc(NS(=O)(=O)c2cccs2)cc1`, which activity change (PNC), negative = inhibition is on record?
A: inactive: 26.5%

Q: With `C=CCn1c(SCc2c(C(=O)OC)sc(N)c2C(=O)OC)nnc1-c1ccc(Br)cc1` as the compound, how does the activity change (PNC), negative = inhibition read?
A: inconclusive: -32.9%

Q: With `Cn1c(NC(=O)c2ccc3c(c2)OCO3)cc(=O)n(C)c1=O` as the compound, how does the activity change (PNC), negative = inhibition read?
A: inconclusive: -40.8%

Q: Which activity change (PNC), negative = inhibition does the source give for `CC(CCc1ccccc1)NC(=O)c1cc2sccc2n1C` (stereo not given) here?
A: inconclusive: -48%

Q: With `CCCNS(=O)(=O)c1ccc(OCC(=O)N2CCC(C(=O)OCC)CC2)cc1` as the compound, how does the activity change (PNC), negative = inhibition read?
A: inconclusive: -45%

Q: For `CN(C)Cc1nc2c(c(=O)[nH]1)C(C)(C)Cc1ccccc1-2`, which activity change (PNC), negative = inhibition is on record?
A: inconclusive: -50.5%

Q: For `c1coc(Cn2nnnc2CN2CCN(C3CCCC3)CC2)c1`, which activity change (PNC), negative = inhibition is on record?
A: inconclusive: -55.1%

Q: For `CCOC(=O)c1oc2ccccc2c1NC(=O)c1cccc(OC)c1OC`, which activity change (PNC), negative = inhibition is on record?
A: inactive: 29.9%
